# Tested on: NSCLC tumor samples
# Parameters: species or system human
# Settings: median number of copies per cell in NSCLC tumor samples
row,Substance,Copy Number Category
1,587 (VMNDRLYAI; listed as Homo sapiens) [compound 587],++ (>=100 = ++)
2,408 (VLDDSIYLV; listed as Homo sapiens) [compound 408],++ (>=100 = ++)
